{"source": "PubChem BioAssay AID686943 (Drosophila RNAi Screening Center, 2013)", "purpose": "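Fly genes whose loss alters ERK activation after insulin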 (primary screen)", "cell system": "Drosophila S2R+ haemocyte-like cells expressing YFP-tagged ERK (Rolled)", "knock-down reagent": "long dsRNA against Drosophila genes", "challenge": "insulin stimulation versus unstimulated cells; dose and duration not given", "measurement": "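Per-plate z-scores of phospho-ERK immunostaining normalised to YFP-tagged ERK, measured with and without insulin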", "direction": "replicate 1, z-score of dpERK with insulin: higher = more active ERK per ERK-YFP after insulin", "note": "The screen tested about 23,000 reagents; below is an unselected part of those with a known target gene and a result. 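Extra replicates exist only for a retested subset of genes; insulin dose and duration not given; both raised and lowered dpERK matter.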 Further read-outs or replicates are left out here. No sequences are given here. The record does not give: the amount of reagent, the time to read-out."}
{"target": "Fum2", "dsRNA": "DRSC18345", "replicate 1, z-score of dpERK with insulin": 0.68}
{"target": "Sirt6", "dsRNA": "DRSC16010", "replicate 1, z-score of dpERK with insulin": 0.14}
{"target": "in", "dsRNA": "DRSC11888", "replicate 1, z-score of dpERK with insulin": -0.68}
{"target": "SPoCk", "dsRNA": "DRSC11675", "replicate 1, z-score of dpERK with insulin": -0.17}
{"target": "SPoCk", "dsRNA": "DRSC11706", "replicate 1, z-score of dpERK with insulin": -0.96}
{"target": "SPoCk", "dsRNA": "DRSC11844", "replicate 1, z-score of dpERK with insulin": -0.02}
{"target": "SPoCk", "dsRNA": "DRSC11845", "replicate 1, z-score of dpERK with insulin": -0.13}
{"target": "CG5439", "dsRNA": "DRSC02861", "replicate 1, z-score of dpERK with insulin": -0.3}
{"target": "CG10750", "dsRNA": "DRSC02105", "replicate 1, z-score of dpERK with insulin": -0.34}
{"target": "mRpS11", "dsRNA": "DRSC15732", "replicate 1, z-score of dpERK with insulin": -0.01}
{"target": "CG13423", "dsRNA": "DRSC06386", "replicate 1, z-score of dpERK with insulin": 0.08}
{"target": "nonA", "dsRNA": "DRSC20357", "replicate 1, z-score of dpERK with insulin": -0.11}
